Results: PMC8372973
Results are given in words; binding and its absence hold for the method and conditions named. Some binding calls cover weakened binding; strength is not graded here.

Key:
[1] = biological target: T1, GBD-Stt4(1-257) (S. cerevisiae) (UniProt P37297); test: two-hybrid; AH109 cells producing GAD-Ypp1 and GBD-fusion proteins; 10-fold serial dilutions spotted on SC -W -L or -A -W -L -H plates with 1 M sorbitol; 2 days at 30°C
T1 sequence: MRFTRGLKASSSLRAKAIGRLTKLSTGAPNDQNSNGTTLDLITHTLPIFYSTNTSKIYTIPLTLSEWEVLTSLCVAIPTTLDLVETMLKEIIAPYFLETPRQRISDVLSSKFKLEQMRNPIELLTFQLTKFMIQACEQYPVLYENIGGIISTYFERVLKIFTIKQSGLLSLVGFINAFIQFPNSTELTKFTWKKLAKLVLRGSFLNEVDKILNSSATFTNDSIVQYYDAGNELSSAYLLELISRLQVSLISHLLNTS

[2] = biological target: T2, GBD-Stt4frag (Stt4 1-814) (S. cerevisiae) (UniProt P37297); test: as above
T2 sequence: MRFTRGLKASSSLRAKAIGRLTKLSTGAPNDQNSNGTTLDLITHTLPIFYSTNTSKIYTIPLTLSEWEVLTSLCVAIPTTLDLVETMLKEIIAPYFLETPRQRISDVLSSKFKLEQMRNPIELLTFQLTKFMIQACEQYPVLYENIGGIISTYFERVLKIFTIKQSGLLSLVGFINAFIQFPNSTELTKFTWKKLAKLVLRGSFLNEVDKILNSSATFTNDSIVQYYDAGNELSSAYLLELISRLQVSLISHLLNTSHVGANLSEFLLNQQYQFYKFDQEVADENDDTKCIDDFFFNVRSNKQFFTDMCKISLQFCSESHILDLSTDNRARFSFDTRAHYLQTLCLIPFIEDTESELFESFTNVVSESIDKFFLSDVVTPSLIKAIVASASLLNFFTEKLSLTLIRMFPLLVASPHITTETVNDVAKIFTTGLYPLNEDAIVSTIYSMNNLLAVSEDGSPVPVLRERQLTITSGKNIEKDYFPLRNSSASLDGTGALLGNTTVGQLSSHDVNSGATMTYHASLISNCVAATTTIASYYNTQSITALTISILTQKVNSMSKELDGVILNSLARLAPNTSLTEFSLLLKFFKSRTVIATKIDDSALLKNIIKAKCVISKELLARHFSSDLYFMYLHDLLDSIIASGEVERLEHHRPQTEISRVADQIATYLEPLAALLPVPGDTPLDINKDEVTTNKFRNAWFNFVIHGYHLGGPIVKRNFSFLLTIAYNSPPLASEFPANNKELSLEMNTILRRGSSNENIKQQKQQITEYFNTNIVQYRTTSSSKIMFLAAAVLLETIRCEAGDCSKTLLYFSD

binding [1]: binds | binding [2]: binds
B1: GAD-Ypp1 (protein, UniProt P46951 1-817)
chain: MPNSNVRIPPTVPSKIIDVVDQALRARLLGGSTFNSGFDSLDSVLNLQFRLHYHVIGSNGPAKPVCDVLLKESQNLEKNMSMMEELNDYPEITKLVEKILFNCLGILFFHRGQFQESQRCLLHSLKIHNNTASQKTALMEQYDRYLIVENLYYRGLVSQDINIMQNVFYKELLAHVDTIPPESNGLLFEYISLIVAKLRFNQIQDLAENFKTTVENPFILFLYMIKKFQSPLKKHIDNDDLYLKFGQNVLLKAKFPTASETNDEALEHFNVFLQYYFKFTHIKKIKVNPSWYNFIISSMEKTFQSIEVSKTAMFLFQNLSDNSNDEIKKKTFKRESILNFVNFVKYNDKYYQLHDNSHRDIISFIDAYSFILQNSSKTDSIENVFDYDNTVSTFATSLNSFYKEYNLPLMSQSESLDWLENSTRCVYPGNISKVLTNAWSTLYEIRKYQLDFLVSNNLTSYLCNAMMLSTKEKDNADVEEQEEGEEEKALRELQFKYSYTLAQQRHIETAIKTLESLILSKNPNYYKAWHLLALCRSVQEDKEMSYKIVCSVLEAMNESLQNNTLLLNDRWQFIHLKLTQLALIEEIFGTLEALETLPEVFELYATLFPDSQPELNSMGPKYSQTKEYLLQMVWIFAANMYMRTKDNDEDAKAAIKEASNVESKFKNLNCNIANGYLSIIKDEPGVALKEFETVLYYDENNLDALVGFAELIFPEELGVEETNLERYYTLSLDKKPGKRAKLTFVNDTDRSAAYARLKFLLECAILESIEAYYSPEVWWYLSLIYEKYQDDEYKNSLLKCIKYQELNPIRSLRYCNY
